The list shows a part of the results.
Experiments:
Experiment in all cases: log2 fold change, soluble protein after heating vs DMSO (PISA); higher = thermal stabilisation; K562 lysate, 10 uM; active = over 0.2 and 3.5 SD of the protein, either way, in both replicates (recomputed)
[1] = compound: C#Cc1cccc(Nc2ncnc3cc(OCCOC)c(OCCOC)cc23)c1 [erlotinib]
Method in brief: (§1)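 A 30 min treatment with 10 μM compound was applied to crude K562 extract at 1 mg/mL protein in PBS pH 7.4 with 1 mM MgCl2. Heating for 3 min spanned 48°C-58°C, after which aliquots were pooled, adjusted to 0.5% NP-40 at 4°C and spun at 21,000xg for 90 min. TMTpro 16plex LC-MS/MS of the supernatant, with channel sums equalised, gave values recorded as log-two fold change in thermal stability against solvent controls, from duplicates.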

The chains behind the UniProt entries cited, without tags or fusion partners. Where a name states a change or a piece, a line headed by the entry shows the natural chain unless it says otherwise.
UniProt Q96QR8: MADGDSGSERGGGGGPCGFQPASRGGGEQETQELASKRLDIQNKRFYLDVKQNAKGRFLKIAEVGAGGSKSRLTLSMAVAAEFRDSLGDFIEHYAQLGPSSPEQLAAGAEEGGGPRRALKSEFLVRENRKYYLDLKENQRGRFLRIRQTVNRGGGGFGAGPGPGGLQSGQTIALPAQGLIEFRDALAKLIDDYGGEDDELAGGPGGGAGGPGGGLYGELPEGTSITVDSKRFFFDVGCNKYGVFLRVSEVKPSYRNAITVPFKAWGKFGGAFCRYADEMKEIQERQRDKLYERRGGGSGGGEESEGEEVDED
UniProt Q03393: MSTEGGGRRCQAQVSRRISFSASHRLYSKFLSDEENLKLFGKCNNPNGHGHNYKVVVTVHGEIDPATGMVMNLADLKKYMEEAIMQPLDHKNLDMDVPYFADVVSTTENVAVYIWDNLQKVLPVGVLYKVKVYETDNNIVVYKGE
UniProt P41219, whole entry, looked up: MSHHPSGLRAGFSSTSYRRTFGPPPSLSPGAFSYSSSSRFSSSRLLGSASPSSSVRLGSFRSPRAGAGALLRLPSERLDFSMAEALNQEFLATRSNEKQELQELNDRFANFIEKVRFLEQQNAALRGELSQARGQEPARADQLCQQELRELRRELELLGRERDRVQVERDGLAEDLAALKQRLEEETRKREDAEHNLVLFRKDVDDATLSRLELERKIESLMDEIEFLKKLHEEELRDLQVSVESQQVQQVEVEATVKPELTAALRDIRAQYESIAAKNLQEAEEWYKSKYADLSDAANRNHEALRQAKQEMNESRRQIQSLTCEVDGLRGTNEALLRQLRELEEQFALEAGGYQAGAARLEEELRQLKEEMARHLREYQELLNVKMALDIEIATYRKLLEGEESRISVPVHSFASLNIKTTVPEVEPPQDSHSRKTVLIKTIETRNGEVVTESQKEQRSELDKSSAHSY
UniProt Q8TBF2: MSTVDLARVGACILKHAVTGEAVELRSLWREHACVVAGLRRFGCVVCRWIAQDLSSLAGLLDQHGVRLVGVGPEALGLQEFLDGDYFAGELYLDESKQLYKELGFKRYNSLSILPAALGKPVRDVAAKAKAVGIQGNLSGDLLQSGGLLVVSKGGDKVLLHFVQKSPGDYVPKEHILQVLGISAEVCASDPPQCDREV
UniProt Q9H0K6: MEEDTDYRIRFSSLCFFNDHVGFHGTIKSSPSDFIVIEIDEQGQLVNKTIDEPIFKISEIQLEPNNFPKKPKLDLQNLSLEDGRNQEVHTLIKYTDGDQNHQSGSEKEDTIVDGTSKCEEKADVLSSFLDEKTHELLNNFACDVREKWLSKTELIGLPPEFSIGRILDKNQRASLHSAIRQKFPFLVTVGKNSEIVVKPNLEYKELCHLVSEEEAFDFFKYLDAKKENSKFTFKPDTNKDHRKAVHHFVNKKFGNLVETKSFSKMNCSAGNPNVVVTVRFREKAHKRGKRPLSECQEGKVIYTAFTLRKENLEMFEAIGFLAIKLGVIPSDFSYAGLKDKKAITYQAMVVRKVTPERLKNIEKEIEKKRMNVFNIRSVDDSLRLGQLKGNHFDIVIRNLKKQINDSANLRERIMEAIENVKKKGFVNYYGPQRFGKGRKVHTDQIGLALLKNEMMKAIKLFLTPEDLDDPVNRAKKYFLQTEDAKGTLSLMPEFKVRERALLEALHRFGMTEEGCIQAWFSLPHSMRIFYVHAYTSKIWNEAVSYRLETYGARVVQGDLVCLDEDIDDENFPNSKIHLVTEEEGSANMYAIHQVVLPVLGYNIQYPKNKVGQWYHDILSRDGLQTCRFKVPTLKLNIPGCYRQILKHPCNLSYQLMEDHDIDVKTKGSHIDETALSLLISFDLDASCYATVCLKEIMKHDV
UniProt Q9Y3E5: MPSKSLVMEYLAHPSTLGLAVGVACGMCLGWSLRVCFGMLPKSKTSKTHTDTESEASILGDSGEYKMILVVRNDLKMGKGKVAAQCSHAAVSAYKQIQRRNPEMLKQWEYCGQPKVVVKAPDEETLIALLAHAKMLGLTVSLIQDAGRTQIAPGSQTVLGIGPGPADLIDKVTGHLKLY
UniProt A2A3K4: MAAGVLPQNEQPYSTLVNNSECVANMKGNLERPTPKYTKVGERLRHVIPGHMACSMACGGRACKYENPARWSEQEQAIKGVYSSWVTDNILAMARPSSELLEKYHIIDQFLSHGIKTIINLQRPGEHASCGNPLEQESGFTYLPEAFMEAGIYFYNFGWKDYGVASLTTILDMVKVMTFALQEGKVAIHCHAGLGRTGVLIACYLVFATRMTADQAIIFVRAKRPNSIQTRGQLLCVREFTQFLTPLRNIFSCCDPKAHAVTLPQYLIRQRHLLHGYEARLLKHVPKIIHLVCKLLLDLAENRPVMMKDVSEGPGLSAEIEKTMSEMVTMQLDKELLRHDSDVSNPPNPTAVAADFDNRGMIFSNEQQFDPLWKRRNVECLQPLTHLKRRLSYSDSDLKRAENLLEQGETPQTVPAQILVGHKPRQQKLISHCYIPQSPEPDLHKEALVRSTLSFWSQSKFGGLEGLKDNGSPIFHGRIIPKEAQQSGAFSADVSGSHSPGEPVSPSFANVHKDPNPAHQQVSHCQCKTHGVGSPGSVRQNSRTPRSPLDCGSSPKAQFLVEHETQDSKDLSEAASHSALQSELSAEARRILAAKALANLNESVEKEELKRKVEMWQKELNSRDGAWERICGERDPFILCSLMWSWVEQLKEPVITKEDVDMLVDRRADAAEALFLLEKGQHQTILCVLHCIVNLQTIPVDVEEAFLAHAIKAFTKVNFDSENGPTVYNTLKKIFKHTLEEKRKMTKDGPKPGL
UniProt Q86Y79: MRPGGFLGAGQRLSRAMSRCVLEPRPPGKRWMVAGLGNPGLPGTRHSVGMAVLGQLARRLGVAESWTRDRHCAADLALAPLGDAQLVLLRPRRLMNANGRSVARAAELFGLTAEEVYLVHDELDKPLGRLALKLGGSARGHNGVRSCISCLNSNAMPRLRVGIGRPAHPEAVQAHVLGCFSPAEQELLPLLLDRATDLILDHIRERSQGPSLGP
UniProt Q9Y6M0: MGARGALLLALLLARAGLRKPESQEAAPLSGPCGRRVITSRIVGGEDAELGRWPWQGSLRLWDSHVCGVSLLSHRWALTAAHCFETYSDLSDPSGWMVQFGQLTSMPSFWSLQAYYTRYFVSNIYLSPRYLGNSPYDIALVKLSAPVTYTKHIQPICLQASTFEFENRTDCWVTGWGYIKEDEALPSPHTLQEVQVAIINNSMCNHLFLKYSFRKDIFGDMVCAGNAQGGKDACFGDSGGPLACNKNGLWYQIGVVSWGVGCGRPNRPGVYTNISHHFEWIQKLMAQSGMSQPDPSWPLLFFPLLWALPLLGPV
UniProt P23219, whole entry, looked up: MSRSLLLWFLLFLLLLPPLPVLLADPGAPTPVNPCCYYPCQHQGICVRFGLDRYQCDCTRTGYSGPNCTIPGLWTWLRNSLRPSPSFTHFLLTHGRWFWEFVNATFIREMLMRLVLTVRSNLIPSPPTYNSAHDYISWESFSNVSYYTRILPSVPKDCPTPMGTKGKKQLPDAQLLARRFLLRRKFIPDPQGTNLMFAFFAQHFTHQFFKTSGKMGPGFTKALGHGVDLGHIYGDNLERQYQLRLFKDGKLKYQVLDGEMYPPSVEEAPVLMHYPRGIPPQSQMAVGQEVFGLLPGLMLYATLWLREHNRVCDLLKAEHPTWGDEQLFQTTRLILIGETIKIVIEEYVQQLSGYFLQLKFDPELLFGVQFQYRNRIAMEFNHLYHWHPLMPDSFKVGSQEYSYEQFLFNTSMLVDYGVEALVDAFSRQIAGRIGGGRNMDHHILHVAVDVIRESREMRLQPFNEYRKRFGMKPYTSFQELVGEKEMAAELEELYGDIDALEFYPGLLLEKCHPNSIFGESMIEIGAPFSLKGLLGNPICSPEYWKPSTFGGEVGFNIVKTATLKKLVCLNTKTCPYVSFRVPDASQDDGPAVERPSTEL

[2] = compound: C/C(=N\NC(=O)C1=CC(=CC=C1)S(=O)(=O)N2CCOCC2)/C3=C(C=CC(=C3)Cl)O
Method in brief: as §1

[3] = compound: C1=CC(=CC=C1C2=NC3=C(N2)C=C(C=C3)C(=O)N)OC4=CC=C(C=C4)Cl
Method in brief: as §1

[4] = compound: C1=CC2=C(C=CC(=C2)/C=C\3/C(=O)NC(=NCC4=CC=CS4)S3)N=C1
Method in brief: as §1

[5] = compound: C1=CC2=NC=CN=C2C=C1/C=C/3\C(=O)NC(=O)S3
Method in brief: as §1

[6] = compound: C1=CC=C(C=C1)C2=NC(=C(N2)C3=CC=NC=C3)C4=CC(=C(C=C4)Cl)O
Method in brief: as §1

[7] = compound: C1=CC=C2C(=C1)C3=NNC4=CC=CC(=C43)C2=O
Method in brief: as §1

[8] = compound: C1CCN(C1)C(=O)NC2=CC=CC(=C2)NC3=NC=C(C(=N3)NCCC4=CN=CN4)Br
Method in brief: as §1

[9] = compound: C1CN(CCC1(CC2=CC=C(C=C2)Cl)N)C3=NC=NC4=C3C=CN4
Method in brief: as §1

[10] = compound: C1COCCN1CCN2C3=CC=CC=C3N=C2NC(=O)C4=CC(=CC=C4)[N+](=O)[O-] [IRAK-1-4 Inhibitor I]
Method in brief: as §1

[11] = compound: C=CC(=O)N1CCC[C@@H](n2nc(-c3ccc(Oc4ccccc4)cc3)c3c(N)ncnc32)C1 [ibrutinib]
Method in brief: as §1

[12] = compound: CC(=O)c1cnc2ccc(-c3cc(Cl)c(O)c(Cl)c3)nc2c1N[C@H]1CC[C@H](CN(C)C)CC1
Method in brief: as §1

[13] = compound: CC(C)(C)Cn1c(N)nc2ccc(-c3[nH]c(C(C)(C)C)nc3-c3ccc(F)cc3)nc21 [ralimetinib]
Method in brief: as §1

[14] = compound: CC(C)(O)CC(=O)NCCn1ccc2ncnc(Nc3ccc(Oc4cccc(C(F)(F)F)c4)c(Cl)c3)c21
Method in brief: as §1

[15] = compound: CC(C)C1=C2N=C(C=C(N2N=C1)NCC3=CC=CC=C3)NCCCCCCN
Method in brief: as §1

[16] = compound: CC1=C(C(CC(=O)N1)C2=CC=C(C=C2)C(F)(F)F)C(=O)NC3=C(C=C4C(=C3)C=NN4)F
Method in brief: as §1

[17] = compound: CC1=C(C2=C(C=C1)C(=O)C3=CC=CC=C3N2CCCN)C
Method in brief: as §1

[18] = compound: CC1=C(C=C(C=C1)NC(=O)C2=CC(=CC=C2)C(C)(C)C#N)NC3=CC4=C(C=C3)N=CN(C4=O)C
Method in brief: as §1

[19] = compound: CC1=C(C=C(C=C1)NC(=O)C2=CC(=CC=C2)N(C)C)NC(=O)C3=CC=C(C=C3)O
Method in brief: as §1

[20] = compound: CC1=CC=C(C=C1)SC2=C3C=C(SC3=CN=C2)C(=O)N
Method in brief: as §1

Measured: log2 fold change

PURB (UniProt Q96QR8)
inactive: [1] -0.016 | [2] -0.028 | [3] 0.035 | [4] 0.004 | [5] -0.004 | [6] 0.011 | [7] 0.051 | [8] 0.048 | [9] -0.114 | [10] 0.026 | [11] 0.02 | [12] 0.002 | [13] 0.02 | [14] -0.009 | [15] -0.038 | [16] 0.008 | [17] -0.032 | [18] -0.044 | [19] 0.017 | [20] 0

PTS (UniProt Q03393)
inactive: [1] -0.018 | [2] -0.112 | [3] -0.018 | [4] 0.034 | [5] 0.001 | [6] 0.074 | [7] -0.023 | [8] -0.069 | [9] 0.002 | [10] 0.028 | [11] 0.213 | [12] 0.015 | [13] 0.021 | [14] -0.027 | [15] -0.041 | [16] -0.117 | [17] -0.102 | [18] 0.034 | [19] -0.013 | [20] -0.017

PRPH isoform 2 (UniProt P41219)
inactive: [1] -0.007 | [2] 0.042 | [3] -0.025 | [4] -0.032 | [5] 0.066 | [6] -0.001 | [7] -0.114 | [8] 0.072 | [9] -0.005 | [10] -0.011 | [11] -0.099 | [12] 0.054 | [13] 0.009 | [14] 0.067 | [15] 0.074 | [16] 0.002 | [17] 0.007 | [18] -0.064 | [19] 0.023 | [20] -0.011

PSEN1 (UniProt P49768)
inactive: [1] 0.024 | [2] 0.001 | [3] -0.109 | [4] 0.053 | [5] 0.043 | [6] -0.06 | [7] 0.003 | [8] -0.026 | [9] 0.122 | [10] -0.081 | [11] 0.051 | [12] 0.036 | [13] -0.011 | [14] 0.107 | [15] 0.038 | [16] -0.123 | [17] -0.067 | [18] 0.019 | [19] -0.016 | [20] -0.027

PTCD3 (UniProt Q96EY7)
inactive: [1] 0.014 | [2] -0.055 | [3] 0.075 | [4] 0.045 | [5] -0.039 | [6] -0.001 | [7] -0.044 | [8] -0.005 | [9] 0.019 | [10] 0.004 | [11] -0.023 | [12] -0.016 | [13] -0.001 | [14] 0.032 | [15] 0.028 | [16] -0.017 | [17] -0.128 | [18] -0.005 | [19] 0.02 | [20] -0.008

PRXL2B isoform 3 (UniProt Q8TBF2)
inactive: [1] 0 | [2] -0.157 | [3] -0.027 | [4] 0.022 | [5] -0.034 | [6] -0.044 | [7] -0.096 | [8] 0.019 | [9] -0.04 | [10] 0.007 | [11] 0.064 | [12] 0.036 | [13] -0.043 | [14] -0.036 | [15] 0.057 | [16] 0.052 | [17] -0.032 | [18] 0.071 | [19] 0.017 | [20] -0.004

PUS7L (UniProt Q9H0K6)
inactive: [1] 0.008 | [2] 0.017 | [3] 0.006 | [4] 0.006 | [5] -0.034 | [6] 0.007 | [7] -0.013 | [8] 0.011 | [9] -0.008 | [10] 0.026 | [11] 0.029 | [12] 0.007 | [13] 0.005 | [14] -0.047 | [15] 0.011 | [16] 0.008 | [17] -0.02 | [18] -0.03 | [19] 0.008 | [20] 0.024

2 consecutive entries from above:
PRXL2B isoform 3 (UniProt Q8TBF2)
inactive: [1] 0 | [2] -0.157 | [3] -0.027 | [4] 0.022 | [5] -0.034 | [6] -0.044 | [7] -0.096 | [8] 0.019 | [9] -0.04 | [10] 0.007 | [11] 0.064 | [12] 0.036 | [13] -0.043 | [14] -0.036 | [15] 0.057 | [16] 0.052 | [17] -0.032 | [18] 0.071 | [19] 0.017 | [20] -0.004

PUS7L (UniProt Q9H0K6)
inactive: [1] 0.008 | [2] 0.017 | [3] 0.006 | [4] 0.006 | [5] -0.034 | [6] 0.007 | [7] -0.013 | [8] 0.011 | [9] -0.008 | [10] 0.026 | [11] 0.029 | [12] 0.007 | [13] 0.005 | [14] -0.047 | [15] 0.011 | [16] 0.008 | [17] -0.02 | [18] -0.03 | [19] 0.008 | [20] 0.024

Continuation:

PTRH2 (UniProt Q9Y3E5)
inactive: [1] -0.005 | [2] 0 | [3] 0.05 | [4] -0.015 | [5] 0.05 | [6] -0.001 | [7] -0.077 | [8] -0.011 | [9] 0.027 | [10] 0.018 | [11] 0.03 | [12] 0.034 | [13] -0.002 | [14] -0.05 | [15] 0.03 | [16] -0.014 | [17] -0.064 | [18] 0.019 | [19] -0.018 | [20] -0.004

PTPDC1 isoform 2 (UniProt A2A3K4)
inactive: [1] -0.067 | [2] 0.058 | [3] -0.017 | [4] -0.166 | [5] 0.137 | [7] 0.025 | [11] -0.01 | [15] -0.077 | [16] 0.103 | [18] -0.042

PTRH1 (UniProt Q86Y79)
inactive: [1] -0.133 | [2] 0.13 | [3] -0.317 | [4] 0.225 | [6] -0.025 | [7] 0.045 | [8] 0.345 | [9] -0.141 | [10] 0.054 | [13] -0.065 | [14] -0.081 | [15] -0.061 | [18] 0.129 | [19] 0.111

PRSS21 (UniProt Q9Y6M0)
inactive: [1] 0 | [2] -0.021 | [3] 0.067 | [4] 0.031 | [5] 0.049 | [6] 0.008 | [7] -0.018 | [8] -0.003 | [9] 0.047 | [10] -0.019 | [11] -0.025 | [12] -0.029 | [13] 0.04 | [14] -0.034 | [15] 0.002 | [17] -0.013 | [18] 0.012 | [19] 0.025 | [20] -0.025

PTGS1 isoform 6 (UniProt P23219)
inactive: [1] -0.044 | [2] 0.118 | [3] 0.033 | [4] -0.105 | [5] -0.005 | [6] 0.086 | [7] -0.03 | [8] 0.008 | [9] -0.025 | [10] 0.061 | [11] 0.109 | [12] 0.022 | [13] -0.001 | [14] -0.075 | [15] -0.043 | [16] 0.023 | [17] -0.039 | [18] 0.023 | [19] -0.011 | [20] -0.026

From the supplement of paper PMC10849652
